According to US20220389106A1 (University of Texas, published 2022):
These are yes or no findings as the source states them, for the method shown. Some binding calls cover weakened binding; strength is not graded here.

Amino acid sequences for entries named in this document (tags omitted). Residues count along the entry.
UniProt Q5JZY3, residues 34-1008: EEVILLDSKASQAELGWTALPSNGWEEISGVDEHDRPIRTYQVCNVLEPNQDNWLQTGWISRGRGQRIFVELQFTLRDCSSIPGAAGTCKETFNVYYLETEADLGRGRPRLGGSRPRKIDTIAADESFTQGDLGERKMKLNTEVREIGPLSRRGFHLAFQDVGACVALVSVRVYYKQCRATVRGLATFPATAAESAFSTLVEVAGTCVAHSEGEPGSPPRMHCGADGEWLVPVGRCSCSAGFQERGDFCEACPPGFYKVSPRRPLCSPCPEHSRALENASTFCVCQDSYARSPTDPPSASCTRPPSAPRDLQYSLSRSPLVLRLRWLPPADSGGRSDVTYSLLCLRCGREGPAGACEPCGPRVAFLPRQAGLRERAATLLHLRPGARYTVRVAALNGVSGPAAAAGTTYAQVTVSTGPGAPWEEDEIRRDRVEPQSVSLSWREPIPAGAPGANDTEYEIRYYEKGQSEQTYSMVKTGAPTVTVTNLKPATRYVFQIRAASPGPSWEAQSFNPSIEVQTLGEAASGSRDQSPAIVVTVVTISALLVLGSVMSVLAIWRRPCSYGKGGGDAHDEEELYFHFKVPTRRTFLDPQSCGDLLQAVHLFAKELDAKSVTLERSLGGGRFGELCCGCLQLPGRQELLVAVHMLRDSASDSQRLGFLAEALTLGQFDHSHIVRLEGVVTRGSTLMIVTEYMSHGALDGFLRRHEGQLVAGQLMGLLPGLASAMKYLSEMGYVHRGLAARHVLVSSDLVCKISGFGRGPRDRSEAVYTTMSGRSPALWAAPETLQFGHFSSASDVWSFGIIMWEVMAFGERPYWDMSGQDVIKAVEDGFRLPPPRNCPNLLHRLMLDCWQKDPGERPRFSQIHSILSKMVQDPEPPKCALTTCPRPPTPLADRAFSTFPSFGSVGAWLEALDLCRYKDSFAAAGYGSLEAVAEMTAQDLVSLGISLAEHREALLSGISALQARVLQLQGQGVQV

What was measured:
[1] = target: hu-EphA10 expressed on cells (human) (UniProt Q5JZY3); assay: flow cytometry and immunofluorescence staining, BT-549 hu EphA10 stable cells vs BT-549 mock
[2] = target: hu-EphA10 expressed on cells (human) (UniProt Q5JZY3); assay: in vivo antibody tracking, nude mice bearing MDA-MB-231 tumors expressing hu-EphA10, IVIS fluorescence

Binder	binding [1]	binding [2]
anti-hu-EphA10 antibody Clone 4 (antibody, IgG1, V domains shown) VH: EVKLEESGGGLVQPGGSMKLSCVASGFTFSYYWMNWVRQSPEKGLEWVAEIRLKSNNYATHYAESVKGRFTISRDDSKSSVYLQMNNLRAEDSGIYYCTFYYGSSAWFAYWGQGTLVTVSA VL: DIQMTQSPASLSASVGETVTITCRASENIYSYLAWYQQKQGKSPQLLVYNVKTLTEGVPSRFSGSGSGTQFSLKIDSLQPEDFGSYYCQHHYVTPPTFGAGTKLELK	binds	binds
anti-hu-EphA10 antibody Clone 8 (antibody, IgG1, V domains shown) VH: QVQLQQSGPELVKPGPLVKISCKASGYTFTSYDITWVKQRPGQGLEWIGWIYPGDGSTKYNEKFKGKATLTADKSSSTAYMQLSSLTSENSAVYFCARGGRLPYFDYWGQGTTLTVSS VL: NIVLTQSPASLAVSLGQRATISCRASESVDSYGNSFMHWYQQKPGQPPKLLIYLASNLESAVPARFSGSGSRTDFTLTIDPVEADDAATYYCQQNNEYPWTFGGGTKLEIK	binds	binds
anti-hu-EphA10 antibody Clone 9 (antibody, IgG1, V domains shown, also called anti-EphA10 (clone 9); anti-EphA10 (clone 9)-pHrodo) VH: QVQLQQSGAELMKPGASVKISCKATGYTFSTYWIEWVKQRPGHGLEWIGEILPGSGRTNYKEKFKDKATFTANTSSTTAYMQLSSLTSEDSAVYYCAIDWYWGQGTTLTVSS VL: QIVLTQSPAIMSASPGEKVTITCSASSSVSYMYWFQQKPGTSPKLWIYSTSNLASGVPARFSGSGSGTSYSLTISRMEAEDAATYYCQQRNSYPPTFGGGTKLEIK	binds	binds
